Source: PMC5480884
No constants are given. Whether binding was seen depends on the method and setting. Some results given as binding are weak or reduced against the parent protein; the word gives no strength. Where a sequence is shown, tags or fusion partners need not be part of it.

Molecular target: T1, LacI-tagRFP-Pds5B (UniProt Q9NTI5)
T1 sequence: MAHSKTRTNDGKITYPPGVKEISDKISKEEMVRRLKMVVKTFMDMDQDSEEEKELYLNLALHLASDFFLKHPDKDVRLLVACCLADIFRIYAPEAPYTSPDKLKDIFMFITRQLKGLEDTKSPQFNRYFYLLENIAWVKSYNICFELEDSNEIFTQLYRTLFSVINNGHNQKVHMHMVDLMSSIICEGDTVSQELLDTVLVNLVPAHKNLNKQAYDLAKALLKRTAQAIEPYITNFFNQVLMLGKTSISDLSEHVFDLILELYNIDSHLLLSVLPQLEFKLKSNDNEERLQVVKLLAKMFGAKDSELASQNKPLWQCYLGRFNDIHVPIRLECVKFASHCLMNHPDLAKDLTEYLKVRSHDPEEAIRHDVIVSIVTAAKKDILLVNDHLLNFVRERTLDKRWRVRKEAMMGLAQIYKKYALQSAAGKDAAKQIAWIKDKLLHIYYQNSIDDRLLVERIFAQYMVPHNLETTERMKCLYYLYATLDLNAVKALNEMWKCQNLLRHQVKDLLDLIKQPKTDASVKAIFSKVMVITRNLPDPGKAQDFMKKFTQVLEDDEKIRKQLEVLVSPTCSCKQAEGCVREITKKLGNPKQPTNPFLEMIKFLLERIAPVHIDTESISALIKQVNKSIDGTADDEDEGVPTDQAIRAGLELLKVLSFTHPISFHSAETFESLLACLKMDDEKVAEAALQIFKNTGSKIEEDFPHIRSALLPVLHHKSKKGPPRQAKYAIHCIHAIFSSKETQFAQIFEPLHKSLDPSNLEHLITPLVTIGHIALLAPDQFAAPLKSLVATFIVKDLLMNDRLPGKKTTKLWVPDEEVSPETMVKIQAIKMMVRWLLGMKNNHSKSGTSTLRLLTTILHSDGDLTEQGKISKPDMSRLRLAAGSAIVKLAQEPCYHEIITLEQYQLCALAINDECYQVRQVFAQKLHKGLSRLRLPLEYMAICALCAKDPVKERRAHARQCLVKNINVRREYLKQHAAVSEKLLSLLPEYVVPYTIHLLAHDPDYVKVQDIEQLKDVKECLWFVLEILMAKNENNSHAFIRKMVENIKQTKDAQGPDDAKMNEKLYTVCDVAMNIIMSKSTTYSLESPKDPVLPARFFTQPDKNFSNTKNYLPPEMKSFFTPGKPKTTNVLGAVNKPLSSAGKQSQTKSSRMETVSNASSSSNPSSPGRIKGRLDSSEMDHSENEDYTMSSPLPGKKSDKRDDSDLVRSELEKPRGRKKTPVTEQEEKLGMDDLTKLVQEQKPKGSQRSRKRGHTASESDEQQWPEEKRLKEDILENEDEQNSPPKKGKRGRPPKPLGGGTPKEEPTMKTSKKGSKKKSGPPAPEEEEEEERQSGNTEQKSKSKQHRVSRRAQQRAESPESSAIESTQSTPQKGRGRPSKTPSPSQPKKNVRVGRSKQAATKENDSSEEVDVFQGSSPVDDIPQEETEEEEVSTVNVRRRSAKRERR
Experiment: LacI/LacO tethering with immunofluorescence microscopy; LacI fusion tethered to a LacO array on chromosome 1 of U-2 OS-LacO Haspin-YFP cells; cells blocked in mitosis (STLC, nocodazol), chromosome spreads stained with antibodies against GFP and RFP

- binding: binds
B1: Haspin-YFP (endogenously tagged Haspin) (enzyme, UniProt Q8TF76 1-798)
chain: MAASLPGPGSRLFRTYGAADGRRQRRPGREAAQWFPPQDRRRFFNSSGSSDASIGDPSQSDDPDDPDDPDFPGSPVRRRRRRPGGRVPKDRPSLTVTPKRWKLRARPSLTVTPRRLGLRARPPQKCSTPCGPLRLPPFPSRDSGRLSPDLSVCGQPRDGDELGISASLFSSLASPCPGSPTPRDSVISIGTSACLVAASAVPSGLHLPEVSLDRASLPCSQEEATGGAKDTRMVHQTRASLRSVLFGLMNSGTPEDSEFRADGKNMRESCCKRKLVVGNGPEGPGLSSTGKRRATGQDSCQERGLQEAVRREHQEASVPKGRIVPRGIDRLERTRSSRKSKHQEATETSLLHSHRFKKGQKLGKDSFPTQDLTPLQNVCFWTKTRASFSFHKKKIVTDVSEVCSIYTTATSLSGSLLSECSNRPVMNRTSGAPSSWHSSSMYLLSPLNTLSISNKKASDAEKVYGECSQKGPVPFSHCLPTEKLQRCEKIGEGVFGEVFQTIADHTPVAIKIIAIEGPDLVNGSHQKTFEEILPEIIISKELSLLSGEVCNRTEGFIGLNSVHCVQGSYPPLLLKAWDHYNSTKGSANDRPDFFKDDQLFIVLEFEFGGIDLEQMRTKLSSLATAKSILHQLTASLAVAEASLRFEHRDLHWGNVLLKKTSLKKLHYTLNGKSSTIPSCGLQVSIIDYTLSRLERDGIVVFCDVSMDEDLFTGDGDYQFDIYRLMKKENNNRWGEYHPYSNVLWLHYLTDKMLKQMTFKTKCNTPAMKQIKRKIQEFHRTMLNFSSATDLLCQHSLFK
